According to the supplement of paper PMC11348887:
Where a name gives a salt, the structure may show the parent alone. The list shows a part of the results. Most entries show no effect beyond the scatter of the controls.

Legend:
Details in all cases: 5 µM; treatment: days 7-14 after plating, readout day 21
[1] = system: hPSC-derived cortical neurons (WA09); test: nucleus area z-score vs screen plate; higher = larger nuclei (more mature)
[2] = system: hPSC-derived cortical neurons (WA09); test: total neurite length per nucleus (MAP2) z-score; higher = more neurite growth
[3] = system: hPSC-derived cortical neurons (WA09); test: nucleus roundness z-score vs screen plate; higher = rounder nuclei (more mature)
[4] = system: hPSC-derived cortical neurons (WA09); test: KCl-induced FOS+/EGR-1+ double-positive nuclei fraction z-score (KCl minus unstimulated); higher = stronger activity-induced IEG response

CC(COc1ccccc1)N(CCCl)Cc1ccccc1 (stereo not given) [Phenoxybenzamine HCl]
nucleus area z-score [1]: 0.718
total neurite length per nucleus (z-score) [2]: 0.862
nucleus roundness z-score [3]: -0.0278
KCl-induced FOS+/EGR-1+ double-positive nuclei fraction z-score [4]: 0.5

CNc1cc(-c2cccc(Cl)c2Cl)nc(N)n1
nucleus area z-score [1]: -0.682
total neurite length per nucleus (z-score) [2]: 0.482
nucleus roundness z-score [3]: 0.198
KCl-induced FOS+/EGR-1+ double-positive nuclei fraction z-score [4]: -0.547

Cc1c(C(=O)NN2CCCCC2)nn(-c2ccc(Cl)cc2Cl)c1-c1ccc(Cl)cc1 [Rimonabant]
nucleus area z-score [1]: -0.00982
total neurite length per nucleus (z-score) [2]: 0.39
nucleus roundness z-score [3]: 0.642
KCl-induced FOS+/EGR-1+ double-positive nuclei fraction z-score [4]: 2.37

NC[C@H]1O[C@H](O[C@H]2[C@H](O)[C@@H](O[C@H]3O[C@H](CO)[C@@H](O)[C@H](N)[C@H]3O)[C@H](N)C[C@@H]2N)[C@H](N)C[C@@H]1O [Tobramycin]
nucleus area z-score [1]: 0.275
total neurite length per nucleus (z-score) [2]: -0.496
nucleus roundness z-score [3]: -0.754
KCl-induced FOS+/EGR-1+ double-positive nuclei fraction z-score [4]: -0.0486

CC(C)(C)c1ccc(S(=O)(=O)/C=C/C#N)cc1
nucleus area z-score [1]: 0.0613
total neurite length per nucleus (z-score) [2]: 0.0299
nucleus roundness z-score [3]: 0.687
KCl-induced FOS+/EGR-1+ double-positive nuclei fraction z-score [4]: -0.361

COc1cc2nccc(Oc3ccc(NC(=O)Nc4cc(C)on4)c(Cl)c3)c2cc1OC [Tivozanib (AV-951)]
nucleus area z-score [1]: 0.59
total neurite length per nucleus (z-score) [2]: 1.01
nucleus roundness z-score [3]: 0.417
KCl-induced FOS+/EGR-1+ double-positive nuclei fraction z-score [4]: 0.86

Cc1ccccc1C(OCCN(C)C)c1ccccc1 (stereo not given) [Orphenadrine Citrate]
nucleus area z-score [1]: -0.243
total neurite length per nucleus (z-score) [2]: -0.63
nucleus roundness z-score [3]: -0.371
KCl-induced FOS+/EGR-1+ double-positive nuclei fraction z-score [4]: -0.715

O=c1c(O)c(-c2ccc(O)c(O)c2)oc2cc(O)ccc12 [Fisetin]
nucleus area z-score [1]: 0.526
total neurite length per nucleus (z-score) [2]: 0.482
nucleus roundness z-score [3]: 0.211
KCl-induced FOS+/EGR-1+ double-positive nuclei fraction z-score [4]: 0.187

c1ccc(C2CN3CCSC3=N2)cc1 (single isomer, unassigned; (-)) [(-)-Tetramisole]
nucleus area z-score [1]: 0.572
total neurite length per nucleus (z-score) [2]: 0.0839
nucleus roundness z-score [3]: -0.668
KCl-induced FOS+/EGR-1+ double-positive nuclei fraction z-score [4]: 0.606

C[C@H](CCC(=O)O)[C@H]1CC[C@H]2[C@@H]3[C@H](O)C[C@@H]4C[C@H](O)CC[C@]4(C)[C@H]3CC[C@]12C [Chenodeoxycholic Acid]
nucleus area z-score [1]: 0.265
total neurite length per nucleus (z-score) [2]: 0.182
nucleus roundness z-score [3]: 0.774
KCl-induced FOS+/EGR-1+ double-positive nuclei fraction z-score [4]: 0.717
